Sequences and labels used below:
B1: TBK1 K38A (enzyme, UniProt Q9UHD2 1-729)
chain: MQSTSNHLWLLSDILGQGATANVFRGRHKKTGDLFAIAVFNNISFLRPVDVQMREFEVLKKLNHKNIVKLFAIEEETTTRHKVLIMEFCPCGSLYTVLEEPSNAYGLPESEFLIVLRDVVGGMNHLRENGIVHRDIKPGNIMRVIGEDGQSVYKLTDFGAARELEDDEQFVSLYGTEEYLHPDMYERAVLRKDHQKKYGATVDLWSIGVTFYHAATGSLPFRPFEGPRRNKEVMYKIITGKPSGAISGVQKAENGPIDWSGDMPVSCSLSRGLQVLLTPVLANILEADQEKCWGFDQFFAETSDILHRMVIHVFSLQQMTAHKIYIHSYNTATIFHELVYKQTKIISSNQELIYEGRRLVLEPGRLAQHFPKTTEENPIFVVSREPLNTIGLIYEKISLPKVHPRYDLDGDASMAKAITGVVCYACRIASTLLLYQELMRKGIRWLIELIKDDYNETVHKKTEVVITLDFCIRNIEKTVKVYEKLMKINLEAAELGEISDIHTKLLRLSSSQGTIETSLQDIDSRLSPGGSLADAWAHQEGTHPKDRNVEKLQVLLNCMTEIYYQFKKDKAERRLAYNEEQIHKFDKQKLYYHATKAMTHFTDECVKKYEAFLNKSEEWIRKMLHLRKQLLSLTNQCFDIEEEVSKYQEYTNELQETLPQKMFTASSGIKHTMTPIYPSSNTLVEMTLGMKKLKEEMEGVVKELAENNHILERFGSLTMDGGLRNVDCL
B2: Flag‐ATG4C (enzyme, UniProt Q96DT6 1-458)
chain: MEATGTDEVDKLKTKFISAWNNMKYSWVLKTKTYFSRNSPVLLLGKCYHFKYEDEDKTLPAESGCTIEDHVIAGNVEEFRKDFISRIWLTYREEFPQIEGSALTTDCGWGCTLRTGQMLLAQGLILHFLGRAWTWPDALNIENSDSESWTSHTVKKFTASFEASLSGEREFKTPTISLKETIGKYSDDHEMRNEVYHRKIISWFGDSPLALFGLHQLIEYGKKSGKKAGDWYGPAVVAHILRKAVEEARHPDLQGITIYVAQDCTVYNSDVIDKQSASMTSDNADDKAVIILVPVRLGGERTNTDYLEFVKGILSLEYCVGIIGGKPKQSYYFAGFQDDSLIYMDPHYCQSFVDVSIKDFPLETFHCPSPKKMSFRKMDPSCTIGFYCRNVQDFKRASEEITKMLKFSSKEKYPLFTFVNGHSRDYDFTSTTTNEEDLFSEDEKKQLKRFSTEEFVLL
B3: GST‐ATG4A (enzyme)
chain: MESVLSKYEDQITIFTDYLEEYPDTDELVWILGKQHLLKTEKSKLLSDISARLWFTYRRKFSPIGGTGPSSDAGWGCMLRCGQMMLAQALICRHLGRDWSWEKQKEQPKEYQRILQCFLDRKDCCYSIHQMAQMGVGEGKSIGEWFGPNTVAQVLKKLALFDEWNSLAVYVSMDNTVVIEDIKKMCRVLPLSADTAGDRPPDSLTASNQSKGTSAYCSAWKPLLLIVPLRLGINQINPVYVDAFKECFKMPQSLGALGGKPNNAYYFIGFLGDELIFLDPHTTQTFVDTEENGTVNDQTFHCLQSPQRMNILNLDPSVALGFFCKEEKDFDNWCSLVQKEILKENLRMFELVQKHPSHWPPFVPPAKPEVTTTGAEFIDSTEQLEEFDLEEDFEILSV

By UniProt entry, the sequences of proteins in these tests, tags left out. Where a name states a change or a piece, a line headed by the entry shows the natural chain unless it says otherwise.
UniProt Q9BXW4: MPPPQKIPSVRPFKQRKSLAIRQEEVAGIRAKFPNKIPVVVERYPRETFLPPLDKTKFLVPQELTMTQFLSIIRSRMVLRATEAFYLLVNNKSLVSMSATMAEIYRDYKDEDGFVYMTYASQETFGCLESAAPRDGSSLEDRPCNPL

No constants are given. Whether binding was seen depends on the method and setting. In cells and extracts the contact can be indirect. Binding calls can cover weak binding; strength is not graded here. For some of these results: Tags and fused reporters may be left off the sequences shown.

The target of one experiment is GST‐LC3C (human) (UniProt Q9BXW4). As to the kind of experiment: pull-down; GST‐LC3C or GST‐GABARAP‐L2 on glutathione‐Sepharose beads mixed with cleared extracts of HeLa or HEK293T cells (endogenous TBK1, or HEK293T transfected with TBK1 constructs), 2 h at 4°C, washed four times in lysis buffer, Western blot; only the target purified.
Turning to “Endogenous TBK1 (from UniProt Q9UHD2 1-729) (enzyme)”, the binding entry was “binds”.

Consider “full‐length TBK1 (from UniProt Q9UHD2 1-729) (enzyme)”, for which the binding result was “binds”.

On to B1, for which the binding result was “binds”.

The next experiment has as its target GFP‐LC3C WT (human) (UniProt Q9BXW4). As to the kind of experiment: co-IP; HEK293T co-transfected with Flag‐ATG4A, B, C or D and GFP‐LC3C or GFP‐GABARAP‐L2 (WT or mutants); GFP‐Trap_A beads, 2 h at 4°C, Western blot. On the technique in general: Immunoblotting shows a protein as a band on a membrane.
As for “Flag‐ATG4B (from UniProt Q9Y4P1) (enzyme)”, the binding result was “binds”.

As to “Flag‐ATG4D (from UniProt Q86TL0 1-474) (enzyme)”, the binding entry is given as “binds”.

On to B2, for which the binding result is recorded as “binds”.

Take B3: the binding entry is “binds”.

For the origin of these results see publication PMC6945063 (2019).
